Laboratory results from the supplement of paper PMC12889115.
The other results are listed elsewhere or left out. Values are raw readings; no control value is given beside them.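 Primary screen: polymyxin B was added at a level permeabilizing Salmonella outer membranes while sparing inner membranes. DMSO wells, both with and without polymyxin B, established maximum growth. Plate-to-plate variation meant each plate was ranked on its own, and the lowest-OD600 compounds were selected as hits.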

System: Salmonella enterica serovar Typhimurium SL1344
Assay: bacterial growth OD600 after 18 h with compound and polymyxin B; higher = more bacterial growth (less inhibition)
Conditions: 50 µM, Mueller-Hinton broth

| SMILES | bacterial growth OD600 (polymyxin B 1 µg/mL) | bacterial growth OD600 (polymyxin B 0.75 µg/mL) |
| --- | --- | --- |
| Cc1cc(C)c(CNC(C)c2cnc(-c3ccncc3)nc2C)cc1C (stereo not drawn) | 0.574 |  |
| COc1ccc(OC2CCN(C(=O)C3CC3)CC2)c(C(=O)NC(C)C2CC2)c1 (stereo not drawn) | 1.11 |  |
| COCCCN1C(=O)CC(CC(=O)N2CCN(C(=O)c3ccco3)CC2)(c2ccccc2C)C1=O (stereo not drawn) |  | 0.863 |
| CCOC(c1ccccc1)c1ccc2c(c1)CN(C(=O)CSc1ccncc1)CCO2 (stereo not drawn) |  | 0.795 |
| COc1cccc(CN2CCC3(CC2)c2ccccc2[C@@H](NC(=O)c2ccccc2OC)[C@@H]3OC)c1 |  | 0.782 |
| O=C(c1ccc(NC2CCCC2)nc1)N1CCC(Oc2cccnc2)CC1 |  | 0.795 |
| CCN(CC)CCN(C)C(=O)CC1(c2cccc(F)c2)CC(=O)N(Cc2cccnc2)C1=O (stereo not drawn) |  | 0.771 |
| COc1cccc(N2CCN(C(=O)Cn3cc(NC(=O)Cc4ccccc4OC)cn3)CC2=O)c1 |  | 0.906 |

Complete entries, quoted from the list.
CCN(CC)CCN(C)C(=O)CC1(c2cccc(F)c2)CC(=O)N(Cc2cccnc2)C1=O (stereo not drawn) reads bacterial growth OD600 (polymyxin B 0.75 µg/mL): 0.771
Cc1cc(C)c(CNC(C)c2cnc(-c3ccncc3)nc2C)cc1C (stereo not drawn) reads bacterial growth OD600 (polymyxin B 1 µg/mL): 0.574
